Measurements as given in paper PMC5829263, “Homoarginine and inhibition of human arginase activity: kinetic characterization and biological relevance” (Scientific Reports, 2018).

Test: Plasma concentrations in healthy older adults, UPLC-MS
Type: in vivo, human
Conditions: healthy older adults >65 years, endogenous level

In the case of `N=C(N)NCCC[C@H](N)C(=O)O` [ARG, arginine], the “Mean baseline plasma concentration” value is reported as 305 ± 44 µmol/L.

For `N=C(N)NCCCC[C@H](N)C(=O)O` [HOMOARG, homoarginine], the “Mean baseline plasma concentration” value was 2.36 ± 0.76 µmol/L.
